The labels stand for the following.
B1: Utp22 (endogenous) (protein, UniProt P53254 1-1237)
chain: MATSVKRKASETSDQNIVKVQKKHSTQDSTTDNGSKENDHSSQAINERTVPEQENDESDTSPESNEVATNTAATRHNGKVTATESYDIHIARETAELFKSNIFKLQIDELLEQVKLKQKHVLKVEKFLHKLYDILQEIPDWEEKSLAEVDSFFKNKIVSVPFVDPKPIPQNTNYKFNYKKPDISLIGSFALKAGIYQPNGSSIDTLLTMPKELFEKKDFLNFRCLHKRSVYLAYLTHHLLILLKKDKLDSFLQLEYSYFDNDPLLPILRISCSKPTGDSLSDYNFYKTRFSINLLIGFPYKVFEPKKLLPNRNCIRIAQESKEQSLPATPLYNFSVLSSSTHENYLKYLYKTKKQTESFVEATVLGRLWLQQRGFSSNMSHSGSLGGFGTFEFTILMAALLNGGGINSNKILLHGFSSYQLFKGVIKYLATMDLCHDGHLQFHSNPENSSSSPASKYIDEGFQTPTLFDKSTKVNILTKMTVSSYQILKEYAGETLRMLNNVVQDQFSNIFLTNISRFDNLKYDLCYDVQLPLGKYNNLETSLAATFGSMERVKFITLENFLAHKITNVARYALGDRIKYIQIEMVGQKSDFPITKRKVYSNTGGNHFNFDFVRVKLIVNPSECDKLVTKGPAHSETMSTEAAVFKNFWGIKSSLRRFKDGSITHCCVWSTSSSEPIISSIVNFALQKHVSKKAQISNETIKKFHNFLPLPNLPSSAKTSVLNLSSFFNLKKSFDDLYKIIFQMKLPLSVKSILPVGSAFRYTSLCQPVPFAYSDPDFFQDVILEFETSPKWPDEITSLEKAKTAFLLKIQEELSANSSTYRSFFSRDESIPYNLEIVTLNILTPEGYGFKFRVLTERDEILYLRAIANARNELKPELEATFLKFTAKYLASVRHTRTLENISHSYQFYSPVVRLFKRWLDTHLLLGHITDELAELIAIKPFVDPAPYFIPGSLENGFLKVLKFISQWNWKDDPLILDLVKPEDDIRDTFETSIGAGSELDSKTMKKLSERLTLAQYKGIQMNFTNLRNSDPNGTHLQFFVASKNDPSGILYSSGIPLPIATRLTALAKVAVNLLQTHGLNQQTINLLFTPGLKDYDFVVDLRTPIGLKSSCGILSATEFKNITNDQAPSNFPENLNDLSEKMDPTYQLVKYLNLKYKNSLILSSRKYIGVNGGEKGDKNVITGLIKPLFKGAHKFRVNLDCNVKPVDDENVILNKEAIFHEIAAFGNDMVINFETD
B2: Ckb2 (endogenous) (protein, UniProt P38930 1-258)
chain: MGSRSENVGTVTREGSRVEQDDVLMDDDSDSSEYVDMWIDLFLGRKGHEYFCDVDPEYITDRFNLMNLQKTVSKFSYVVQYIVDDLDDSILENMTHARLEQLESDSRKLYGLIHARYIITIKGLQKMYAKYKEADFGRCPRVYCNLQQLLPVGLHDIPGIDCVKLYCPSCEDLYIPKSSRHSSIDGAYFGTSFPGMFLQAFPDMVPKHPTKRYVPKIFGFELHKQAQLTRWQELQRLKLVEKLESKDVDLTKSGGFKT
B3: Rrp7 (endogenous) (protein, UniProt P25368 1-297)
chain: MGIEDISAMKNGFIVVPFKLPDHKALPKSQEASLHFMFAKRHQSSNSNESDCLFLVNLPLLSNIEHMKKFVGQLCGKYDTVSHVEELLYNDEFGLHEVDLSALTSDLMSSTDVNEKRYTPRNTALLKFVDAASINNCWNALKKYSNLHAKHPNELFEWTYTTPSFTTFVNFYKPLDIDYLKEDIHTHMAIFEQREAQAQEDVQSSIVDEDGFTLVVGKNTKSLNSIRKKILNKNPLSKHENKAKPISNIDKKAKKDFYRFQVRERKKQEINQLLSKFKEDQERIKVMKAKRKFNPYT
B4: Ifh1 (endogenous) (protein, UniProt P39520 1-1085)
chain: MAGKKSPRKSTINHSTHSGKLPANIKRLIKKGESDTKSRQSPPTLSTTRPRRFSLIYSSESSLSDVSDSDKNKSTNPHKIKRKAKNISNNSQGKKSKLIQRQIDNDDEGTESSDYQAVTDGEESENEEEESEEEEEDDDEDDDDDDDDGSDSDSDSETSSDDENIDFVKLTAQRKKRAMKALSAMNTNSNTLYSSRENSNKNKSVKLSPKKENEEEQKEEKEKEKEEQQKQQESNKKEVNGSGTTTTQQALSFKFKKEDDGISFGNGNEGYNEDIGEEVLDLKNKENNGNEEDKLDSKVMLGNNDELRFPNISESDESEYDIDQDAYFDVINNEDSHGEIGTDLETGEDDLPILEEEEQNIVSELQNDDELSFDGSIHEEGSDPVEDAENKFLQNEYNQENGYDEEDDEEDEIMSDFDMPFYEDPKFANLYYYGDGSEPKLSLSTSLPLMLNDEKLSKLKKKEAKKREQEERKQRRKLYKKTQKPSTRTTSNVDNDEYIFNVFFQSDDENSGHKSKKGRHKSGKSHIEHKNKGSNLIKSNDDLEPSTHSTVLNSGKYDSSDDEYDNILLDVAHMPSDDECSESETSHDADTDEELRALDSDSLDIGTELDDDYEDDDDDSSVTNVFIDIDDLDPDSFYFHYDSDGSSSLISSNSDKENSDGSKDCKHDLLETVVYVDDESTDEDDNLPPPSSRSKNIGSKAKEIVSSNVVGLRPPKLGTWETDNKPFSIIDGLSTKSLYALIQEHQQLREQHQRAQTPDVKREGSSNGNNGDELTLNELLNMSELEDDSPSHTDDMENNYNDAINSKSTNGHAADWYEVPKVPLSAFRNKGINAYEEDEYMIPANSNRKVPIGYIGNERTRKKIDKMKELQRKKTEKKRQLKKKKKLLKIRKQRQKAIKEQETMNLQLGINGHEIIGNNNSHSDINTGTDFTTNENTPMNELPSHAPEDASLIPHNSDLAVDSNTRKNSTKSVGLDEIHEILGKDENDLLSVGDINGYDAQEGHVIEDTDADILASLTAPVQFDNTLSHENSNSMWRRRQSMVEAAAENLRFTKNGLFSESALADIEGIMGNDVNHSFEFNDVLQ

The text below walks through data of doi:10.1101/2024.04.22.590536 (bioRxiv, 2024).

Results are given in words; binding and its absence hold for the method and conditions named. In cells and extracts the contact can be indirect. These calls come from enrichment with a bait or labelling near it, and not all partners need be listed. Tags and fused reporters may be left off the sequences shown.

This assay concerns the target T1, Stm1-3xMyc (S. cerevisiae) (UniProt P39015).
T1 sequence: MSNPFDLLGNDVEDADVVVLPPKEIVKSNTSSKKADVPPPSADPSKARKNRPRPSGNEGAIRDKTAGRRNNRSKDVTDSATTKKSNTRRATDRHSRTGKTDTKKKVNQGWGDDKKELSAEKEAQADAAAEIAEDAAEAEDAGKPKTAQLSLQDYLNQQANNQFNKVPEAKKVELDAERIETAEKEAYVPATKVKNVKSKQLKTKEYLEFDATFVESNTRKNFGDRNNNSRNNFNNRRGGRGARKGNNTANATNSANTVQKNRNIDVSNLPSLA
In words: affinity purification with mass spectrometry.
Turning to B1, the binding entry was “binds”. B2: the binding entry is recorded as “binds”. The entry for B3 is “binds”; for B4 it is “binds”.
